# Measured values published in publication PMC12370185.
# The list shows a part of the results. For part of these data: At the low end of the ranking the order means little.
# Experiments:
# Settings in all cases: 10 mM Tris-Cl pH 7.5, 50 mM NaCl, 1 mM DTT, 0.25 mg/ml BSA, 2 mM MgCl2, 0.025% Nonidet P-40, 5% glycerol; 28 nM nucleosome library; 10 min on ice then 30 min …; high values mean tight binding; double strand, one strand shown
# KLF4 + histone octamer = assay: EMSA with sequencing
# [1] = system: c-MYC + MAX + histone octamer; assay: EMSA with sequencing
# OCT4 + histone octamer = assay: Pioneer-seq (competitive nucleosome EMSA with sequencing)
# SOX2 + histone octamer = assay: as above
Sequence,binding signal (log2 relative supershift) (KLF4 + histone octamer),binding signal (log2 relative supershift) [1],binding signal (log2 relative supershift) (OCT4 + histone octamer),binding signal (log2 relative supershift) (SOX2 + histone octamer)
GATGGACCCTATACGCGGCCTTCTGGCATGGACTTTGCCCCAGAGGGACACACCTAGCTTCTTGCGGGAGTGGGCAAGGAGGAGCACAGTTGGAACTACAGGGAGGGTGGTGGGGCTTGGCCCCCATGCAGTAGGCACATGGCAGGTGTTCCCTAAGGAGGAAACCTGGCCCTCCTCAGTCTTTCCTGTGAGACTGAGTAGGCAGAGTGGTGCCAGTCGGATAGTGTTCC,2.21,0.362,-0.16,-0.602
GATGGACCCTATACGCGGCAGTAAATATTTCAGGCTCTGTGGGTTACGTATCGTTTCTGTTGCAGCAACTCAACTCTGCTCTTGGAGCACAGAAGCAGCCACAAATACGTAAACAAATGGGTGTGGCTGTACACCAGTAAAACTTTACAAAACAAGGAGTGGTCCACGGCCTCAGCGTGCCAGCCTCTGCTCTAAACCGTGACACCCAAATGCCAGTCGGATAGTGTTCC,1.91,0.382,-0.568,-0.18
GATGGACCCTATACGCGGCTCACCCACCCACACATACTCACACATGCCTGCACACGCATACACTCATGCATGCACACACGGTCATCCACCCACATATACACACACATGCACGTTCACATGCACACTCGCATGCACACATGCAGTCACCCACCCACACGTGCACACTCACACACGCATACATAGACATACACACACACGAAGTCACCCACCTGCCAGTCGGATAGTGTTCC,2.06,1.61,-0.224,-0.759
GATGGACCCTATACGCGGCAACACAAACATCCAGTCCATCGCACTGTTCTTCAAACATGCCATGGTGCTCCCCACTCCTGGCCCTTGCACGTGCTCTTCCTTCCACTTAGGATGCCATCTCCGTGCTCCACCCACCTCCTGTGAGTCAGCCTAACACCCTGCTCCTTCAATGGCCAGCCTAAGTATCTCCACCTCTAGGATGCCTCCCTGTGCCAGTCGGATAGTGTTCC,1.2,0.101,-0.738,-0.0202
GATGGACCCTATACGCGGCCCAGGCTGTAGATGTTCCAGGCTCCCCACTGAGGTATCACAGAAGGCTGGGTGGGGAGCTGGCACTTTCATCCTCACCAGTTGATAGTAAGAACCTCCCTCTTCTACGCTGGTACCCATGAAGACCATGTGGGTAGCCTGGACTCCACTCCCACCTGGTGGTAACAAGGCAACCTATCACCAGTGTCAGTGTGCCAGTCGGATAGTGTTCC,1.81,0.591,-0.789,-0.294
GATGGACCCTATACGCGGCTGGTTTTCTTGCCTATATACACCACATACACCATATACCTATATACCTATACACATGTGGTGTATATAGAAGGGAAGTGTATGTGCTGTGTGTGCTGTGCATACTGTGGGTGGTGTAGTGATATATGCATATGTGGTGTGTGTGGAGTATATTGGGTGTGTGATGTGTATGGTATATATTGGGTGTGTGTGTGCCAGTCGGATAGTGTTCC,1.8,0.403,-0.518,-0.123
GATGGACCCTATACGCGGCAGCATGATTCTCGCGATCCATTACTTCTGAAACAGATGACTCCCAGCAGCTGCTGCCTGTGGCCCACAGGGCTTCCTGCCCTGCATGACAGCTGCACATCACATCCTGTGGTCATACTACTTCAGCCGCTTCTACGGCCAGATACAAAAGTGGGTGGGGAACATAGGCAAGGGATCCAGCGACTTTACCGGTGCCAGTCGGATAGTGTTCC,2.06,0.598,-0.606,-0.05
GATGGACCCTATACGCGGCATTGCCGTGGGAGTGCCAACTACTGTGGAATAACAGGCCCAGCCCTGCAGGCTCGGGCACGCTGTGCTGTAGGCCACAGCAACCACAGGCTCTGAGGCCTCTGGCCGCTCCAGGAGGGAGGGGTGCCGGGACAGAGACGCCCTCAGGCCTGGGAAGGCAAACTTGGAGGTGGGGTGGAGGGGACTTGAGGATGCCAGTCGGATAGTGTTCC,2.57,0.0478,-0.959,-1.65
GATGGACCCTATACGCGGCGTATTTGTGCGTGTGTGTGTCTGAGGGTCTGTGTGCATGTGTGTATGTGCTCATGGGTGTGCATTTGTGCACGTGTGTGTGAGTGGCCCAAATGGGCACGCACTGTGTGTCCAGCACACATTGGTTCCCCCATCCCCCTGCACCCCACCCCATCTCCACCCCCCAGGACTTCATACCCATTACCCATGTGCTGCCAGTCGGATAGTGTTCC,2.09,1.27,-0.178,-0.424
GATGGACCCTATACGCGGCCTAAGTGCGGTCTCCAAATCACGATGATCAGCATCACTTGTTGGAACTTGTTGGGAATGCAAATTATCAAGCCCCACCCCAGACCTTTGTGATCTAAAAGCCCTCCAGGTGATTCTGATCCACACTGAAGCACGAGAACCACTGACCTTAGGAACTGTTACCTGTTCCTTTGCTTCCGTAGAGTGAAGTAATGCCAGTCGGATAGTGTTCC,0.786,0.354,-0.0315,-0.192
GATGGACCCTATACGCGGCATAGCACAGTAGCTGTGAGGAAGTGACCGCTCAGGTGTTGGGTGATGTGTCTAGGGTCACATTGCCTAGAAGAGTGGCAGGGCTGCGCTTGCTGCAGGCTTGCTTGATCCTGAAGCCCTGGTTCCTCTCACCATGCCCTGGGCTGCAGAACTCACTTCTGGGCCTTGTAAGGCCGCTGGTGGGTAATGGTGTGCCAGTCGGATAGTGTTCC,0.951,0.353,-0.0939,-0.201
GATGGACCCTATACGCGGCACTCCAGAGGCAGAGATGGGACGACTGCTTGAGCCCAAGAGTTTAGTTAGAAGCTGCAGAGAGCTCTGGTCATGGCACTGCACTCCAGCCTGGGCAACAGAGCAAGACCTCATCTCCTGCCTGGGCGTGCTGGTTCATGCCTGTAATCCCAGCACTTTGGGAGACCGAAGCACATGGATCACTTGAGGTCATGCCAGTCGGATAGTGTTCC,0.116,1.25,-0.524,-0.873
GATGGACCCTATACGCGGCTACTGTAGTGCAGCAAATATCTGTAGTGGCTAAAACTACATTTATTACTCCTTGTAAGTCTGTGTGTTTGCGGGGTAGATTAACTGATACAGGCTGGGCTTGACCAATCTCAATCTCAATGAGCTTGTTCATGTCCTGTGGTCAGTGGGGGATTGGCTAGTCTAGGATGGTCATGGCTGGGAGATATCATCTGCCAGTCGGATAGTGTTCC,1.56,0.342,-0.431,-0.471
GATGGACCCTATACGCGGCATAGATGGAGAGGATTTCAAGTGATGTTTTCTGAAGATGGTTCTGTTGTCCCGGGAGAGCCCTTGGCGGACATGGTAGTGCCAGTCAGAGCCCTTGACGCTGTGCAGCCAGGTGGCTTATTGTCCCAGTGACTTTCCAACCAGATACTCTCAGTCAGAGTGAAGGGCTCCACTTAGAAACTCCCTTTCCCATGCCAGTCGGATAGTGTTCC,2.22,0.00407,-0.543,-0.19
GATGGACCCTATACGCGGCTGTGAATTGTGGAGGAAGGGCCCAGGAGGGCCACATGCCCTGCCAGGGAAGCCATAGAGAGCCCTGCCCCGGGAGGTCAGTGCCTCCTTCAATGCCTGCGATCCCTCACCCTGCCCTGCTTCCCCCACCATCCGCCCCGCCTGGGCAGCCTGGGCCACTGCCCGCCAGCCACCCCCGCCTTCGGACTGTGCTGCCAGTCGGATAGTGTTCC,2.37,0.614,-0.487,-0.585
GATGGACCCTATACGCGGCGCTGGTGTATGCTGGGAGCTATGCAGGCGTAGGGTGTGTCCTGGGCCAGAGGACACAGCACATGCTTAGGCTTGGGAGAAAGGACACTCGCCTGTGATGGGAGAGGCACTCATATTTGGGTCTGTGGTCTGGGCTGTGTGGGTGGGACACAGGGTGTGGACCTGGGTGGATCTTAAGGAGGGTGGATGGCATGCCAGTCGGATAGTGTTCC,2.02,0.859,-0.612,-0.535
GATGGACCCTATACGCGGCTGTGTGACTCAGCAGAGACAGCCATAATCTCCCTGGGACTATCACTCCATTGGACTGGGAACCACACCACCATCCCCCACAGCAGCTGCAGCAAGCCCCGCCCAAGATGAGGCTGAGCTCAGACAGGCCTATCCCTGCCCCAACCTGCTGGTCTTTCTCTATCCACCCTGGTAGCCAAAGGAAAAGGTCATTGCCAGTCGGATAGTGTTCC,1.68,0.228,-0.719,-0.0151
GATGGACCCTATACGCGGCTACTATATAGCTACTCCCCTCTAATATGCACTCTAAGCCCCACCCTTACTGCACTGCTCCACCCTGTGTCTCACCACCATGTGTTTGCTCATGCTGTTCTCTTGGCTTCTCCCCACATCTTGCACCCTTGCTATTAAACTCCTAATGTTTCTTCAAAGTACAGTTCAAAGATCACTTCCTCTTGGGCATATTGCCAGTCGGATAGTGTTCC,1.13,0.117,-0.684,-0.057
GATGGACCCTATACGCGGCATGAGCACTCCAGAGGTGGCAGCAAAAGCCACAGCCTGGGTCTATAGCACAAACATCTGGTCAGCACACAGTCACTGCCTTGCCCCACCCATCCCTTTGGCCTCCTCAGGCCTCCAACTGGTGGAGCCTTAGTCCCGCATCCACATGGCCACACCAGAGAAGAGAGCTAGGTGGAGGATGGGTCCCTCCCTTGCCAGTCGGATAGTGTTCC,2.32,0.422,-0.79,-0.581
GATGGACCCTATACGCGGCAGCCCCTGCCTCCCTCCCTGCAGCTCCCAGACAGGCTGGGCCCCAGCAGCAGGCCGGGCTGTCTGGCTGCTGTTCAACAGGGAGTCCAGCTGCCTGGGGTCCTACAGAACGGGGCTGGGCAGGCATTCTTCTCTGTCCAGGCTCTGGCTTCAGGGCCAGGAAGGCAGGAGTTGTTGAGGTGCCTTAGTTTTTGCCAGTCGGATAGTGTTCC,1.55,0.195,-0.708,-0.52
GATGGACCCTATACGCGGCGACCTGCTCTGCAAGGCATCAGATGCCTTCCAGTCAGTAAGAGACAAGAGATACACAGGGTGCTCCCATTCCCACAGCAAGCACCACCCTGCACCACTAGTATTAGCACCACCCACATGGAAGGGTGCCAGACACATACCTACTAGCTGCCTGCCACGCATGGAAAATTCTTTAGGCAATACCCTCCGCACTGCCAGTCGGATAGTGTTCC,0.902,0.234,-0.258,-0.0578

# Reprinted at random: 2 entries already listed
Sequence,binding signal (log2 relative supershift) (KLF4 + histone octamer),binding signal (log2 relative supershift) [1],binding signal (log2 relative supershift) (OCT4 + histone octamer),binding signal (log2 relative supershift) (SOX2 + histone octamer)
GATGGACCCTATACGCGGCAGCCCCTGCCTCCCTCCCTGCAGCTCCCAGACAGGCTGGGCCCCAGCAGCAGGCCGGGCTGTCTGGCTGCTGTTCAACAGGGAGTCCAGCTGCCTGGGGTCCTACAGAACGGGGCTGGGCAGGCATTCTTCTCTGTCCAGGCTCTGGCTTCAGGGCCAGGAAGGCAGGAGTTGTTGAGGTGCCTTAGTTTTTGCCAGTCGGATAGTGTTCC,1.55,0.195,-0.708,-0.52
GATGGACCCTATACGCGGCCTAAGTGCGGTCTCCAAATCACGATGATCAGCATCACTTGTTGGAACTTGTTGGGAATGCAAATTATCAAGCCCCACCCCAGACCTTTGTGATCTAAAAGCCCTCCAGGTGATTCTGATCCACACTGAAGCACGAGAACCACTGACCTTAGGAACTGTTACCTGTTCCTTTGCTTCCGTAGAGTGAAGTAATGCCAGTCGGATAGTGTTCC,0.786,0.354,-0.0315,-0.192
